Measured values taken from the supplement of paper PMC12425257.
± gives the standard deviation of the averaged measurements. This is one part of the list.

What follows are molecules tested on Madurella mycetomatis MM55 (assay: metabolic activity (growth) relative to DMSO growth control; higher = more fungal growth). Details: 1 µM.

SMILES | metabolic activity [%]
CCC(=O)c1c(-c2ccccc2)c2cc(Cl)ccc2c(=O)n1Cc1cc(S(C)(=O)=O)n(CC(N)=O)n1 | 109.2 ± 0.11
COc1ncccc1-c1cnn2ccc(N3CCN(C(=O)CN(C)C)CC3)nc12 | 74.7 ± 2.6
Cc1cc(NC(=O)c2cccc(NC(=O)/C=C/CN(C)C)c2)ccc1Nc1nccc(-c2cccnc2)n1 | 94.9 ± 8.6
COc1cc2ncn(-c3cc(O[C@H](C)c4ccccc4Cl)c(C(N)=O)s3)c2cc1OC | 93.5 ± 14
CN1CCN(c2ccc(Nc3ncc4c(=O)n(-c5c(Cl)cncc5Cl)nc(-c5ccccn5)c4n3)cc2)CC1.Cl.Cl | 105 ± 36
O=C(Nc1n[nH]c2cc(-c3cccc(F)c3)ccc12)C1CC1 | 80.1 ± 1.5
CS(=O)(=O)c1ccc(-c2cnc(N)c(C(=O)Nc3ccccc3)n2)cc1 | 107 ± 4
C[C@@H]1CCN(C(=O)CC#N)C[C@@H]1N(C)c1ncnc2[nH]ccc12 | 86 ± 16
CNS(=O)(=O)c1ccc(N(C)C)c(Nc2ncnc3cc(OC)c(OC)cc23)c1 | 81.2 ± 10
CCn1c2cc(Cl)c(F)cc2c(=O)c2c(=O)o[nH]c21 | 92.6 ± 28
COc1cc(Nc2ccnc3ccc(Br)cc23)cc(OC)c1OC | 109 ± 24
CC[C@@H]1CO[C@H](C(=O)Nc2ccccc2)CN1c1cc(-c2ccc3c(N)n[nH]c3c2)nc(NC)n1 | 93.6 ± 16
NC[C@H](NC(=O)c1ccc(-c2ccncc2)cc1)c1ccccc1 | 90.2 ± 20
Cc1cccc(NC(=O)Nc2ccc(-c3cncc4c3c(N)nn4C)cc2)c1 | 130 ± 44
Cc1cccc(NC(=O)Nc2ccc(-c3cnc4c(Br)cnn4c3N)cc2)c1 | 117 ± 14
Cc1ccc2c(-c3ccnc(Nc4ccc5c(c4)OCCO5)n3)c(-c3ccc(C(F)(F)F)cc3)nn2n1 | 96.8 ± 15
CC(C)N1CCN(Cc2cnc(-c3cc(-c4cccc5[nH]ccc45)cc4[nH]ncc34)o2)CC1 | 97.1 ± 21
COc1cc(Nc2nccc(N3CCC(NC(=O)C4COc5ccccc5O4)C3)n2)cc(OC)c1OC (configuration not stated) | 103 ± 28
CCn1c(-c2nonc2N)nc2ccccc21 | 87.4 ± 7

An excerpt of these results, with each value named:
CCC(=O)c1c(-c2ccccc2)c2cc(Cl)ccc2c(=O)n1Cc1cc(S(C)(=O)=O)n(CC(N)=O)n1
  metabolic activity [%]: 109.2 ± 0.11
COc1ncccc1-c1cnn2ccc(N3CCN(C(=O)CN(C)C)CC3)nc12
  metabolic activity [%]: 74.7 ± 2.6

Next part:

SMILES | metabolic activity [%]
COc1cc2ncnc(Nc3ccc(F)c(Cl)c3)c2cc1O[C@H]1CC[C@H](N)CC1 | 83.2 ± 19
COc1cc(Nc2nccc(N3CCC(NC(=O)Nc4cc(C)ccc4C)C3)n2)cc(OC)c1OC (configuration not stated) | 101 ± 12
NC(=O)c1c(Nc2ccc(I)cc2F)cc(F)cc1Oc1cccc(NS(N)(=O)=O)c1 | 95.1 ± 17
COc1cc2ncnc(Nc3ccc4c(cnn4Cc4ccccc4)c3)c2cc1OC.Cl | 89.7 ± 34
Nc1n[nH]c2ncc(-c3ccccc3)cc12 | 116 ± 10
Cn1cc(-c2ccc3c(c2)CCN3C(=O)Cc2cccc(C(F)(F)F)c2)c2c(N)ncnc21 | 93.1 ± 26
COc1cc2ncn(-c3cc(OCC4CCCO4)c(C(N)=O)s3)c2cc1OC (configuration not stated) | 107 ± 1.8
Cl.Cl.Cl.NC(Cc1c[nH]c2ccccc12)C(=O)Nc1cncc(C=Cc2ccncc2)c1 (configuration not stated) | 114 ± 15
Cc1cc(O)cc(C)c1/C=C/c1cncc(C(N)=O)c1 | 101 ± 42
CN1C(=O)c2sccc2N(C)c2nc(Nc3ccc(S(=O)(=O)NCCCNC(=O)OC(C)(C)C)cc3)ncc21 | 107 ± 18
CN(C)CCOc1ccc(-c2nc(-c3ccc4c(c3)CC/C4=N\O)c(-c3ccncc3)[nH]2)cc1 | 101 ± 9.2
Cc1nccc(-c2c(-c3ccc(F)cc3)ncn2CCCN2CCOCC2)n1 | 81.8 ± 19
CCn1c(-c2nonc2N)nc2cncc(CNC3CCNCC3)c21 | 108 ± 20
COc1ccc2nc(-c3cccc(C)n3)nc(Nc3ccncc3)c2c1 | 126 ± 63
COc1cc(Nc2cnc(C#N)c(O[C@H](C)CN(C)C)n2)ncc1-c1cnn(C)c1 | 97.4 ± 22
CCNc1n[nH]c2ccc(C3C(C#N)=C(C)NC(C)=C3C#N)cc12 | 88.334 ± 0.065
O=C1Nc2ccccc2SC1=Cc1c[nH]c2cc(OCCN3CCOCC3)ccc12 | 97.9 ± 18
CCN(CC)S(=O)(=O)c1cc(Nc2nccc(-c3ccnc(-c4ccc(NC(=O)NC)cc4)c3)n2)ccc1Cl | 103 ± 3.9
